For 64 compounds, AC50 results are on record in PubChem BioAssay AID493014 (National Center for Advancing Translational Sciences (NCATS), 2011).

By AC50 is commonly meant the concentration at which the activity in the assay is half-maximal.

The list shows a part of the results. These are further read-outs of the screen, such as a control signal, another cell line or another target. No call is given for them. Most of these compounds were active or inconclusive in the main read-out, so they are no random draw. Words in brackets tell the shape of the fitted curve; partial curves, single points and poor fits give uncertain potencies.

The assay in a line: qHTS Assay to Find Inhibitors of Chronic Active B-Cell Receptor Signaling. The following applies: ABC-DLBCL IkBa-CBG/CBR reporter, luminescence ratio (green luciferase fused to IkBa over red control in TMD8 lymphoma cells), 4 h. In outline: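 Doxycycline induced both beetle luciferases in TMD8 lymphoma cells; IKK-driven degradation limits the IkappaBalpha-fused green signal, while red luminescence normalises for cell number and nonspecific effects. Compounds tested up to 46 uM, 4 hrs.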
(qHTS replaces the single test concentration by a dilution series.)

The mark [1] stands for this setting: measured here: CBR red luminescence, cell number.
Setting [2] is: measured here: IkBa-CBG green luminescence.

In the case of `Cc1ccc(CSc2nnc(-c3cccnc3)o2)cc1`, the AC50 under setting [1] was 0.231 µM [rising, full curve, poor fit].
The same measure, in the same setting: then `CCOc1ccc(-c2csc(NC(=O)C3CCCO3)n2)cc1` (stereo not drawn), with 2.91 µM [rising, full curve].
As for `CCOC(=O)c1ccc(NC(=S)NNC(C)(C)C)cc1`, the AC50 under setting [1] is 12.6 µM [falling, partial curve] and the AC50 under setting [2] is 7.08 µM [falling, partial curve].
For the compound `CC(=O)c1ccc(-c2cccs2)s1`, under setting [1], the AC50 is 12.6 µM [rising, single point].
The same measure, in the same setting: the figure for `CC1=C(C)/C(=N/OC(=O)c2cccc([N+](=O)[O-])c2)C=CC1=O` is 9.2 µM [falling, single point].
For `COc1ccccc1NC(=O)c1cnc(SCC(=O)N2CCCc3ccccc32)n(C)c1=O`, the AC50 under setting [1] was 0.282 µM [falling, full curve, poor fit] and the AC50 under setting [2] was 0.562 µM [rising, full curve, poor fit].
In the case of `COC(=O)Cc1[nH]n(-c2nc3ccccc3s2)c(=O)c1C(C)=Nc1ccc(OC)cc1`, the AC50 under setting [1] was 7.08 µM [falling, partial curve, poor fit].
On the same count and under the same terms, then `Cc1cccc2sc(NC(=O)CN(C)S(=O)(=O)c3ccc(Br)s3)nc12`, with 20.6 µM [falling, partial curve, poor fit]; and `CC(C)(C)c1cc(NC(=O)Nc2ccc(Cl)cc2Cl)no1`, with 15.8 µM [rising, partial curve].
Same read-out and setting: the figure for `O=S(=O)(c1ccc(Br)cc1)N1CCN(Cc2ccco2)CC1` is 6.31 µM [rising, single point]; for `Cc1ccc(OCCNC(=O)c2ccco2)cc1C` it is 0.0058 µM [rising, full curve, poor fit]; for `Cc1nc(-c2ccccn2)nc(SCC(=O)N2CCOCC2)c1Cl` it is 10 µM [rising, partial curve, poor fit].
Same read-out and setting: the figure for `Cc1sc2nc(C(C)C)oc(=O)c2c1C` is 2.59 µM [rising, full curve, poor fit]; for `CN(C)c1ccc(/C=C2\SC(=O)N(CC(O)Cn3c4ccccc4c4ccccc43)C2=O)cc1` (stereo not drawn) it is 32.6 µM [rising, partial curve, poor fit]; for `COc1ccc(NC(=O)Cn2nnc(-c3ccccc3NS(=O)(=O)c3ccccc3)n2)cc1` it is 29.1 µM [falling, single point].
For the compound `CCOC(=O)Nc1ccc2c(c1)N(C(=O)CCN(C)C)c1ccccc1CC2`, the concentration at half-maximal activity (AC50) under setting [1] was 15.8 µM [falling, single point].
Still for that read-out and setting: the figure for `Cc1nn(-c2ccccn2)c2c1C(=O)C(Br)CC2` (stereo not drawn) is 35.5 µM [falling, single point]; for `CCc1c(O)nc(SCC(=O)Nc2ccc(Br)cc2)n(-c2ccc(C)cc2)c1=O` it is 35.5 µM [falling, single point]; for `COc1ccc2cc(C(N)=O)/c(=N\NC(=O)c3ccccc3)oc2c1` it is 0.501 µM [falling, full curve, poor fit].
The same measure, in the same setting: the figure for `O=C(c1cccs1)N1CCN(c2ccc(F)cc2)CC1` is 29.1 µM [rising, single point]; for `c1ccc(-c2csc3ncnc(NCC4COc5ccccc5O4)c23)cc1` (stereo not drawn) it is 29.1 µM [falling, single point].
Still for that read-out and setting: then `O=C(O)c1ccc(NNC(=S)Nc2cc(C(F)(F)F)ccc2Cl)cc1`, with 2 µM [falling, full curve, poor fit]; and `CC(C)Nc1oc(-c2cccc3ccccc23)nc1C#N`, with 7.08 µM [rising, partial curve].
On to `Cc1c(C#N)c(NC(=O)CCl)n(Cc2ccccc2)c1C`, for which the AC50 under setting [1] is 6.31 µM [falling, single point].
As for `Cc1ccc(Sc2ccc(NC(=O)CCl)cc2)cc1C`, the AC50 under setting [1] was 29.1 µM [falling, single point] and the AC50 under setting [2] was 18.4 µM [falling, partial curve, poor fit].
`CCCCn1nc2cc(C(=O)NCC3CC3)ccc2c1OCC`: the AC50 under setting [1] was 2.82 µM [rising, full curve, poor fit].
The same measure, in the same setting: then `OCCOCCNc1ncnc2c1cnn2-c1ccccc1`, with 12.6 µM [falling, partial curve]; and `O=C(CSc1nnc2n1CCCN2C(=S)Nc1ccc(Cl)cc1)c1ccccc1`, with 29.1 µM [falling, single point].
On the same count and under the same terms, the figure for `CCOC(=O)CSc1nnc(CNc2ccc(Cl)cc2)n1-c1ccccc1` is 8.91 µM [falling, partial curve, poor fit].
Same read-out and setting: the figure for `O=C1C(NS(=O)(=O)c2ccccc2)=C(N2CCN(c3ccc(F)cc3)CC2)C(=O)c2ccccc21` is 3.16 µM [rising, partial curve].
In the case of `CCCCc1ccc(Nc2ncnc3nc[nH]c23)cc1`, under setting [1], the AC50 is 3.66 µM [falling, partial curve, poor fit].
Still for that read-out and setting: the figure for `CCN1CCN(c2ccc(NC(=O)c3ccc([N+](=O)[O-])o3)cc2Cl)CC1` is 0.141 µM [falling, partial curve, poor fit]; for `NNc1nc(-c2ccccc2)cc(-c2ccc(Br)cc2)n1` it is 35.5 µM [falling, single point].
Take `Nc1ccc2oc(-c3ccccn3)nc2c1`: the AC50 under setting [2] was 20.6 µM [rising, partial curve, poor fit].
On to `Cc1c(NC(=O)c2ccc(Cl)nc2)cccc1-c1nc2cccnc2s1`, for which, under setting [1], the AC50 is 35.5 µM [falling, single point].
Still for that read-out and setting: then `COc1ccc(-c2nc(-c3ccccc3)c(-c3cc([N+](=O)[O-])ccc3C)[nH]2)cc1O`, with 11.2 µM [falling, partial curve].
The same measure, in the same setting: the figure for `CCc1ccccc1OC[C@@H](O)CN[C@H]1CCCc2ccccc21` is 2.59 µM [falling, partial curve, poor fit]; for `COc1ccc(C(=O)OCC(=O)c2cc(OC)ccc2OC)c(OC)c1` it is 6.31 µM [rising, partial curve, poor fit]; for `Cc1ccc(CCc2nnc(SCC(=O)Nc3ccccc3Cl)n2-c2ccccc2)o1` it is 23.1 µM [falling, single point].
Same read-out and setting: then `Cc1ccc2nc(N3CCN(C(=O)C4CC4)CC3)sc2c1`, with 0.794 µM [rising, full curve, poor fit].
For `O=C(O)c1ccc2noc(-c3ccccc3)c2c1`, the AC50 under setting [1] was 0.731 µM [falling, full curve].
Still for that read-out and setting: then `CC(C)(C)C(=O)Nc1ccc(-c2cc3cc(Cl)ccc3o2)cc1`, with 35.5 µM [rising, single point]; and `COc1ccccc1N(C(=O)CNS(=O)(=O)c1ccccc1)C(C(=O)NCc1ccco1)C(C)C` (stereo not drawn), with 5.01 µM [falling, partial curve, poor fit]; and `CCN1C(=O)CC(N2CCN(c3cccc(OC)c3)CC2)C1=O` (stereo not drawn), with 35.5 µM [rising, single point].
On the same count and under the same terms, then `COc1ccc(N2CCN(C(=O)c3ccc(NS(=O)(=O)c4cccc(F)c4)cc3)CC2)cc1`, with 2.06 µM [rising, partial curve, poor fit]; and `CCC(=O)Nc1cccc(NC(=S)NC(=O)c2cccc(C)c2)c1`, with 18.4 µM [falling, single point].
Same read-out and setting: the figure for `O=C(Cn1c(-c2ccccn2)nc2ccccc21)N/N=C/c1cccnc1` is 35.5 µM [rising, single point]; for `CS(=O)(=O)Nn1cnc2ccccc2c1=O` it is 32.6 µM [rising, single point].
As to `CCN(C(=O)Nc1cccc(Cl)c1)c1ccccc1`, the AC50 under setting [1] was 11.2 µM [rising, partial curve, poor fit].
Same read-out and setting: then `COc1c2occc2cc2ccc(=O)oc12`, with 25.9 µM [rising, partial curve, poor fit]; and `CCOC(=O)c1c(C)[nH]c(C(=O)OCc2ccc(F)cc2)c1C`, with 2.82 µM [rising, partial curve]; and `Cc1ccc(CCNC(=O)NC(C)(C)C)cc1`, with 0.517 µM [rising, full curve, poor fit].
As to `O=C(Oc1c(Cl)cc(Cl)c2cccnc12)N1CCCCC1`, the AC50 under setting [2] was 4.11 µM [rising, partial curve, poor fit].
Take `CCOC(=O)c1c(OCCO)nn(-c2ccccc2)c1N`: the AC50 under setting [1] was 35.5 µM [falling, single point].
For `Cc1ccc(-n2cc(-c3ccccc3)[nH]c2=O)cc1F`, under setting [1], the AC50 was 1.16 µM [falling, full curve, poor fit].
Still for that read-out and setting: then `Brc1ccc(OCc2nc3ccccc3[nH]2)cc1`, with 8.91 µM [falling, partial curve, poor fit].
Same read-out and setting: the figure for `CCCC(=O)N(c1ccc2oc(C)c(C(C)=O)c2c1)S(=O)(=O)c1ccc(C(=O)O)cc1` is 3.55 µM [falling, partial curve, poor fit]; for `O=C(NC(=S)NCc1ccc(F)cc1)c1ccccc1` it is 1.03 µM [rising, partial curve, poor fit]; for `O=S(=O)(c1cccc(Cl)c1)N1CN(CC2CCCO2)c2nc3ccccc3nc21` (stereo not drawn) it is 8.91 µM [falling, partial curve].
Still for that read-out and setting: then `CCc1cc2cc(C)ccc2nc1SCC(=O)N1CCN(C(=O)c2ccco2)CC1`, with 11.2 µM [falling, single point].
With `COc1ccc(NC(=O)CSc2ncccc2C(=O)OC(C)C)cc1OC`, the AC50 under setting [1] is 29.1 µM [falling, single point].
As for `CN1/C(=C/C=N/n2cnnc2)C(C)(C)c2ccccc21`, the AC50 was 6.51 µM [falling, single point] under setting [1] and 6.51 µM [rising, partial curve, poor fit] under setting [2].
As to `COC(=O)c1cc(CNC(=O)C2CC(=O)N(c3ccc4c(c3)OCCO4)C2)ccc1OC` (stereo not drawn), the AC50 under setting [1] is 0.82 µM [rising, partial curve, poor fit].
On the same count and under the same terms, the figure for `CN(C)S(=O)(=O)c1ccc2[nH]cc(/C=C/c3nc4ccccc4c(=O)n3-c3ccccc3)c2c1` is 0.794 µM [falling, full curve, poor fit].
